According to the supplement of paper PMC10849652:
The other results are listed elsewhere or left out.

The chains behind the UniProt entries cited, without tags or fusion partners. Where a name states a change or a piece, a line headed by the entry shows the natural chain unless it says otherwise.
UniProt Q96AD5: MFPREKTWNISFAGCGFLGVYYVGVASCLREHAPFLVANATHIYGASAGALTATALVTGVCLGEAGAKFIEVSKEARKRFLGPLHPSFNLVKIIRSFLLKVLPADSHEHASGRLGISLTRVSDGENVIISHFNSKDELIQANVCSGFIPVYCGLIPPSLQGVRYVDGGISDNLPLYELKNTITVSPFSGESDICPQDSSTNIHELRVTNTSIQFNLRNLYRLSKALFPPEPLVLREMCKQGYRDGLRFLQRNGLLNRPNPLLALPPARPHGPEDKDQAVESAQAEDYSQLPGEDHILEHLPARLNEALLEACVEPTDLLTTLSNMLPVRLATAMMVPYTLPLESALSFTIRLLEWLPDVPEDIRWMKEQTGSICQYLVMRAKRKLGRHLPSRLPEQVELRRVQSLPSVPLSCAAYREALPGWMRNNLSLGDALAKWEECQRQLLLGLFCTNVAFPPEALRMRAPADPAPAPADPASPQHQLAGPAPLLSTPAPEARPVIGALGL
UniProt Q9UHN1: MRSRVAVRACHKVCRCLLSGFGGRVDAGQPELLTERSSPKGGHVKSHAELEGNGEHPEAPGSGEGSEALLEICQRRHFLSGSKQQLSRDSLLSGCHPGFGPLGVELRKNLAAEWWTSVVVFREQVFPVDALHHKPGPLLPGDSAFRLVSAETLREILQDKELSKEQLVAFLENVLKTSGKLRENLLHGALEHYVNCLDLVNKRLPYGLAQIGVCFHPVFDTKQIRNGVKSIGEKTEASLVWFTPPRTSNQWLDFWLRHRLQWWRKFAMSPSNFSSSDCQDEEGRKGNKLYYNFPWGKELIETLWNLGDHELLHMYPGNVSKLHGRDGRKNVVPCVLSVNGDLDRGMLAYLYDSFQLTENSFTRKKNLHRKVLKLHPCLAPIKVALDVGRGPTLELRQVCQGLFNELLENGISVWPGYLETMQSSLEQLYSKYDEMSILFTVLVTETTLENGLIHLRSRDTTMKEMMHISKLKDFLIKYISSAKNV
UniProt O75334: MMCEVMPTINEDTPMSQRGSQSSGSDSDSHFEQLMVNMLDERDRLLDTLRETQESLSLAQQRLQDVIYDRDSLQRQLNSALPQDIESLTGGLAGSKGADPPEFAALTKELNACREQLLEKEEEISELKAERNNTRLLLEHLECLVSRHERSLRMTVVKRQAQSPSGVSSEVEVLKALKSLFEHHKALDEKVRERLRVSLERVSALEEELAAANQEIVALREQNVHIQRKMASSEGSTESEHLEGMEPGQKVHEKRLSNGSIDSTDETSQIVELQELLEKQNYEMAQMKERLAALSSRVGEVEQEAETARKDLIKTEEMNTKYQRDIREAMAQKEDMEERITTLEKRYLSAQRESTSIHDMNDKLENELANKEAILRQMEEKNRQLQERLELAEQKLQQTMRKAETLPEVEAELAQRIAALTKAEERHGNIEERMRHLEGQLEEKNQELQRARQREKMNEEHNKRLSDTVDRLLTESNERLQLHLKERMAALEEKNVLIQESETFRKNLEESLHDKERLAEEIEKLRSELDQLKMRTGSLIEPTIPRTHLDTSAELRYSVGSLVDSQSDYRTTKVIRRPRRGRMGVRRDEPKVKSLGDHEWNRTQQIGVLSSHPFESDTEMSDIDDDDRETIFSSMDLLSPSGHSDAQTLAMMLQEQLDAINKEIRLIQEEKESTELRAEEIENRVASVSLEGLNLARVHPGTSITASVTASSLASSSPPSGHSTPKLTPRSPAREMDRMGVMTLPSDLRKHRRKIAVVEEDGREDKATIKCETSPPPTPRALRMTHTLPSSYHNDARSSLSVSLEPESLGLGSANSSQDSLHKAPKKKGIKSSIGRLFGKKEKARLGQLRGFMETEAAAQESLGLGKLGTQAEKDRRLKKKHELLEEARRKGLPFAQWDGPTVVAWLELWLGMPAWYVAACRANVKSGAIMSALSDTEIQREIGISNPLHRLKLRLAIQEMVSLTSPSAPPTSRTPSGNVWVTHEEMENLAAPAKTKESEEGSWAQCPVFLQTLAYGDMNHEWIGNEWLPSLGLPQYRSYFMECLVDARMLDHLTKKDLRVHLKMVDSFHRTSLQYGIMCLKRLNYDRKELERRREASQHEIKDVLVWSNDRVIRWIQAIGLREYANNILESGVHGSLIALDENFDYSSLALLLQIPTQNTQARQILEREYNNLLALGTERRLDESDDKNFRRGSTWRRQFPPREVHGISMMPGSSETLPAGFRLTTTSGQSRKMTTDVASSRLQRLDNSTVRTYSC
UniProt Q9H2H8: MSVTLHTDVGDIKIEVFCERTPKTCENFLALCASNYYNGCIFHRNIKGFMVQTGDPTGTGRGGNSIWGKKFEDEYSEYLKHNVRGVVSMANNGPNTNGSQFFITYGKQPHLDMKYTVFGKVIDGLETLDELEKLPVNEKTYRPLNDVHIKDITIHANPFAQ
UniProt Q04941: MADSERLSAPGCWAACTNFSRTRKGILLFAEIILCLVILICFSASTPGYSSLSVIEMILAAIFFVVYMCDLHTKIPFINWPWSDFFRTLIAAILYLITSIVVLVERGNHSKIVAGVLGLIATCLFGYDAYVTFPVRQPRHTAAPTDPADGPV
UniProt Q13794: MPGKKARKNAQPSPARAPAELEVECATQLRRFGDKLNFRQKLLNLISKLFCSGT
UniProt O60664: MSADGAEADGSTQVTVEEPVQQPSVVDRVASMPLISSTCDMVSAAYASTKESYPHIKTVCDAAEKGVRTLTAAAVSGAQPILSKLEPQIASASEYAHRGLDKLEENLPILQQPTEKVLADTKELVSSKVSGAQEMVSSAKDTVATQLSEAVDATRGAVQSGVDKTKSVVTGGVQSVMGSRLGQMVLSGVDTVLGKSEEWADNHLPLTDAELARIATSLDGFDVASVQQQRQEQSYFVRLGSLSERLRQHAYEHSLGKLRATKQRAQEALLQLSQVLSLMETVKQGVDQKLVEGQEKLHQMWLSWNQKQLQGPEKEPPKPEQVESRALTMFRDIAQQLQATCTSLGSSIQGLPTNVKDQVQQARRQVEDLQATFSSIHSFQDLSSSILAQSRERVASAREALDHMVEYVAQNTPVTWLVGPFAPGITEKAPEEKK
UniProt P55058, whole entry, looked up: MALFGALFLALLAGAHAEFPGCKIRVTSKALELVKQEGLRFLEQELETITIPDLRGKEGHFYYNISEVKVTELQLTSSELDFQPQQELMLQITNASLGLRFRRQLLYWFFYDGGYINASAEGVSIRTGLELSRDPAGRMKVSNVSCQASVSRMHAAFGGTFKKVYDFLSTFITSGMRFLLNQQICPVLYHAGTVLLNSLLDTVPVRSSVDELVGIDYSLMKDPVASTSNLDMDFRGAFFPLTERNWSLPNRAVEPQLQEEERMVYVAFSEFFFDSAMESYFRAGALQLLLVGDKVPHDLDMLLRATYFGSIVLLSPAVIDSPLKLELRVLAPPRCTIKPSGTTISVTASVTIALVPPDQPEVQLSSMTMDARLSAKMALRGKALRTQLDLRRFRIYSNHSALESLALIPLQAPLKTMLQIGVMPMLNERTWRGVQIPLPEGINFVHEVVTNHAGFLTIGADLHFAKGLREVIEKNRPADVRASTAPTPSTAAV
UniProt P0DPB5: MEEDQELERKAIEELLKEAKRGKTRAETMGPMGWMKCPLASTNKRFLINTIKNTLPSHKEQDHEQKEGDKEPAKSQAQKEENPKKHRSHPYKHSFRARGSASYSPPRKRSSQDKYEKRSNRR
UniProt P41247: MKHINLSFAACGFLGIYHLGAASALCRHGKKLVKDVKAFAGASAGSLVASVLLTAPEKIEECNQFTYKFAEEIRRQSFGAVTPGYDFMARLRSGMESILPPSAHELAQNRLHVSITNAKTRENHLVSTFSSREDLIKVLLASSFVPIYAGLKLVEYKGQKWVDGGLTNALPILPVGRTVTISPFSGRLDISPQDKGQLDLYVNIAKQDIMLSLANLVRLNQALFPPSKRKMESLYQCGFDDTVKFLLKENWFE
UniProt Q9H9Y6, whole entry, looked up: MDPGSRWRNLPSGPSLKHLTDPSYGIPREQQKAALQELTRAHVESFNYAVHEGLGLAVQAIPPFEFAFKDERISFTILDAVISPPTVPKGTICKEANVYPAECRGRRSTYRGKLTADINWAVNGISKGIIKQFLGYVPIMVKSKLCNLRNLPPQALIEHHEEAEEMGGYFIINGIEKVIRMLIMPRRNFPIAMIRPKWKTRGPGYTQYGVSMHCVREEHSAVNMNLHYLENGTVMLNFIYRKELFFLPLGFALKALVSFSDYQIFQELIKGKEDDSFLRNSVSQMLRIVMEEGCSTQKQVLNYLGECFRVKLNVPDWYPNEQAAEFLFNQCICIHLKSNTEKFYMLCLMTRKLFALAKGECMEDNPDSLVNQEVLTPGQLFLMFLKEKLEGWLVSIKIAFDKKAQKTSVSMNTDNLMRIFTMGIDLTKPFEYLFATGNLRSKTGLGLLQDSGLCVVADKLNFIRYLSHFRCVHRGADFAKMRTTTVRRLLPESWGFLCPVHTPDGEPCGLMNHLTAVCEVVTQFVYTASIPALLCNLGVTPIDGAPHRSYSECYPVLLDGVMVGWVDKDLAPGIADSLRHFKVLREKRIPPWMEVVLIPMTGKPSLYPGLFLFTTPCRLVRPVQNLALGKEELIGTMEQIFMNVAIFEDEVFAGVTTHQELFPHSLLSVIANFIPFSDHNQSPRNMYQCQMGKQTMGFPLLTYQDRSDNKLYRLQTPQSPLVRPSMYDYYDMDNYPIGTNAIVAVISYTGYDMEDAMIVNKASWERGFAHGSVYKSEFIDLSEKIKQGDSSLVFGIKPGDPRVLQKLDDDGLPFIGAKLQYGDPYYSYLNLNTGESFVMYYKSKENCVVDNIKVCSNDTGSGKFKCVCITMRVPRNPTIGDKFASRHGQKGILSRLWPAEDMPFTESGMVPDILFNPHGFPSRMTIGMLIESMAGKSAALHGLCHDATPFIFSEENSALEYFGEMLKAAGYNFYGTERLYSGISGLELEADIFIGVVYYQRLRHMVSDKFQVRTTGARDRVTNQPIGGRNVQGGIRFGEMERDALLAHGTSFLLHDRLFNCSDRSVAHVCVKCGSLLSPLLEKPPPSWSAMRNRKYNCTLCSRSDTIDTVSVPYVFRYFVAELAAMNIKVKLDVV
UniProt Q8IWE5: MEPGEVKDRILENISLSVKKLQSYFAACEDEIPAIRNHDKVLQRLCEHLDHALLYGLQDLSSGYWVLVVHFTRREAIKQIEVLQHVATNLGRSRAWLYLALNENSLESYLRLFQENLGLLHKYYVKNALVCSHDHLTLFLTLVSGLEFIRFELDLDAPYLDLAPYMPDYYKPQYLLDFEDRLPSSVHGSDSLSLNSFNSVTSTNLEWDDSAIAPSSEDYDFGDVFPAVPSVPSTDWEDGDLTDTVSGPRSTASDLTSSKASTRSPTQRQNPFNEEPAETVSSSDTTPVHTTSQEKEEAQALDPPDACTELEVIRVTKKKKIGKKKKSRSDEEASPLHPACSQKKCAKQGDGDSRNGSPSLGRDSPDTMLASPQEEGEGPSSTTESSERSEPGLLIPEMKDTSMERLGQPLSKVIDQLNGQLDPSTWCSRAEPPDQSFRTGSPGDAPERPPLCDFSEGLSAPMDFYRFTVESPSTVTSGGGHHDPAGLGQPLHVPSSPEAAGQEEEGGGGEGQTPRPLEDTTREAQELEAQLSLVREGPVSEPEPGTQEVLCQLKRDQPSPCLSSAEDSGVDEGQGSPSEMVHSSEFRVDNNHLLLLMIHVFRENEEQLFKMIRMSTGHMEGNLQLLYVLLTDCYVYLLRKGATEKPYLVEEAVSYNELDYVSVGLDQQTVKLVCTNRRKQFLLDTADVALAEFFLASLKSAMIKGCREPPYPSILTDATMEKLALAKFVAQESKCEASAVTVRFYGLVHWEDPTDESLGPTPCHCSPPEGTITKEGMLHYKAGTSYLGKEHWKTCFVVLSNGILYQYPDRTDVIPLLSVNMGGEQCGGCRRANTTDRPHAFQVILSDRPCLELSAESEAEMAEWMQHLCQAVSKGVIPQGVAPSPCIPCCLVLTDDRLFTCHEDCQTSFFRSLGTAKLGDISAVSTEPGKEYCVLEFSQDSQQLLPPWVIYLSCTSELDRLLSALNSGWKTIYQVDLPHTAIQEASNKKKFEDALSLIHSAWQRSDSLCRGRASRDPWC

Experiments:
Test in all cases: log2 fold change, soluble protein after heating vs DMSO (PISA); higher = thermal stabilisation; K562 cells, 10 uM, 30 min; active = over 0.2 and 3.5 SD of the protein, either way, in both replicates (recomputed)
[1] = compound: CC1=C(C=C(C=C1)NC(=O)C2=CC(=CC=C2)C(C)(C)C#N)NC3=CC4=C(C=C3)N=CN(C4=O)C
In short: (§1)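 K562 cells at 2×10^6 cells/mL were exposed to 10 μM compound for 30 min, then aliquots were heated for 3 min across 48°C-58°C, pooled, and extracted in PBS containing 0.5% NP-40 at 4°C. The supernatant after 21,000xg for 90 min was taken as soluble protein and measured by TMTpro 16plex LC-MS/MS with channel sums equalised. Thermal stability is reported relative to control samples, with values from duplicates. Fold changes are given on a log2 scale.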

[2] = compound: CC1=C(C=C(C=C1)NC(=O)C2=CC(=CC=C2)N(C)C)NC(=O)C3=CC=C(C=C3)O
In short: as §1

[3] = compound: CC1=CC=C(C=C1)SC2=C3C=C(SC3=CN=C2)C(=O)N
In short: as §1

[4] = compound: CC1=NC(=CC=C1)C2=C(N=C(N2)C(C)(C)C)C3=CC4=NC=CN=C4C=C3
In short: as §1

Nexturastat A = compound: CCCCN(Cc1ccc(C(=O)NO)cc1)C(=O)Nc1ccccc1 [Nexturastat A]
In short: as §1

vemurafenib = compound: CCCS(=O)(=O)Nc1ccc(F)c(C(=O)c2c[nH]c3ncc(-c4ccc(Cl)cc4)cc23)c1F [vemurafenib]
In short: as §1

[5] = compound: CCCS(=O)(=O)Nc1ccc(F)c(C(=O)c2c[nH]c3ncc(Cl)cc23)c1F
In short: as §1

[6] = compound: CCCc1cc(C)[nH]c(=O)c1CNC(=O)c1cc(-c2ccnc(N3CCN(C)CC3)c2)cc2c1cnn2C(C)C
In short: as §1

givinostat = compound: CCN(CC)Cc1ccc2cc(COC(=O)Nc3ccc(C(=O)NO)cc3)ccc2c1 [givinostat]
In short: as §1

barasertib = compound: CCN(CCCOc1ccc2c(Nc3cc(CC(=O)Nc4cccc(F)c4)[nH]n3)ncnc2c1)CCOP(=O)(O)O [barasertib]
In short: as §1

Measured: log2 fold change

POLD1 (UniProt P28340)
inactive: [1] -0.083 | [2] -0.028 | [3] 0.018 | [4] 0.022 | Nexturastat A 0.02 | vemurafenib 0.033 | [5] 0.071 | [6] 0.006 | givinostat 0.021 | barasertib 0.005

POP5 (UniProt Q969H6)
inactive: [1] -0.024 | [2] -0.034 | [3] -0.017 | [4] -0.003 | Nexturastat A 0.016 | vemurafenib 0.033 | [5] 0.024 | [6] -0.021 | givinostat -0.042 | barasertib -0.02

POP1 (UniProt Q99575)
inactive: [1] 0.03 | [2] -0.001 | [3] 0.004 | [4] -0.02 | Nexturastat A -0.011 | vemurafenib -0.004 | [5] 0.021 | [6] 0.018 | givinostat -0.009 | barasertib -0.042

PNPLA2 (UniProt Q96AD5)
inactive: [1] 0.009 | [2] -0.017 | [3] -0.003 | [4] 0.008 | Nexturastat A -0.021 | vemurafenib -0.017 | [5] 0.053 | [6] 0.026 | givinostat 0.036 | barasertib -0.092

POLR2D (UniProt O15514)
inactive: [1] -0.022 | [2] -0.005 | [3] 0.002 | [4] 0.004 | Nexturastat A 0.027 | vemurafenib 0.046 | [5] -0.006 | [6] -0.014 | givinostat -0.267 | barasertib -0.031

POLG2 (UniProt Q9UHN1)
inactive: [1] -0.016 | [2] 0.028 | [3] -0.01 | [4] 0.02 | Nexturastat A 0 | vemurafenib -0.037 | [5] 0.007 | [6] -0.067 | givinostat -0.064 | barasertib -0.018

POLR2B (UniProt P30876)
inactive: [1] 0.009 | [2] -0.044 | [3] 0.041 | [4] 0.016 | Nexturastat A 0.054 | vemurafenib 0.006 | [5] 0.041 | [6] 0.005 | givinostat -0.005 | barasertib 0.008

PPFIA2 (UniProt O75334)
inactive: [1] 0.018 | [2] -0.013 | [3] -0.02 | [4] -0.04 | Nexturastat A 0.058 | vemurafenib 0.009 | [5] 0.132 | [6] -0.011 | givinostat -0.053 | barasertib 0.033

POLR3F (UniProt Q9H1D9)
inactive: [1] -0.03 | [2] 0.015 | [3] -0.04 | [4] -0.007 | Nexturastat A -0.005 | vemurafenib 0.014 | [5] -0.027 | [6] 0.016 | givinostat 0.027 | barasertib -0.018

PPIL3 isoform 2 (UniProt Q9H2H8)
inactive: [1] 0.037 | [2] 0 | [3] -0.004 | [4] -0.112 | Nexturastat A 0.307 | vemurafenib 0.106 | [5] 0.036 | givinostat 0.042 | barasertib 0.021

PLP2 (UniProt Q04941)
inactive: [1] -0.083 | [3] -0.072 | [4] -0.103 | Nexturastat A 0.009 | vemurafenib -0.109 | [5] -0.059 | [6] 0.022 | givinostat -0.356 | barasertib 0.325

PPIP5K2 (UniProt H0Y9S9)
inactive: [1] -0.053 | [2] 0.014 | [3] -0.084 | [4] -0.088 | Nexturastat A 0.106 | [5] 0.096 | [6] 0.029 | barasertib 0.042

POLDIP2 (UniProt Q9Y2S7)
inactive: [1] 0.007 | [2] -0.001 | [3] 0.033 | [4] 0.004 | Nexturastat A 0.003 | vemurafenib 0.035 | [5] 0.027 | [6] -0.033 | givinostat 0.034 | barasertib 0.026

POGZ (UniProt Q7Z3K3)
inactive: [1] 0.037 | [2] -0.025 | [3] 0.028 | [4] 0.008 | Nexturastat A -0.127 | vemurafenib 0.122 | [5] -0.024 | givinostat -0.142

PMAIP1 (UniProt Q13794)
inactive: [1] -0.014 | [2] 0.121 | [3] 0.123 | Nexturastat A 0.046 | vemurafenib -0.065 | [5] -0.039 | [6] -0.023 | givinostat 0.086 | barasertib -0.02

POLE4 (UniProt Q9NR33)
inactive: [1] 0.071 | [3] 0.121 | [4] 0.008 | Nexturastat A -0.055 | vemurafenib 0.098 | [5] 0.025 | [6] 0.017 | givinostat 0.049 | barasertib 0.039

PNKP (UniProt Q96T60)
inactive: [1] -0.104 | [2] -0.049 | [3] 0.018 | [4] 0.07 | vemurafenib 0.197 | [5] -0.066

PLIN3 isoform 2 (UniProt O60664)
inactive: [1] -0.237 | [3] -0.023 | Nexturastat A 0.135 | [5] -0.092 | [6] -0.376 | barasertib 0.057

POM121 (UniProt Q96HA1)
inactive: [1] -0.045 | [2] -0.032 | [3] -0.056 | [4] -0.074 | Nexturastat A 0.117 | vemurafenib -0.039 | [5] 0.007 | givinostat 0.119 | barasertib 0.111

PLTP (UniProt P55058)
inactive: [1] 0.148 | [3] 0.061 | [4] -0.317 | Nexturastat A 0.032 | vemurafenib -0.099 | [5] -0.15 | [6] -0.009 | givinostat -0.033

POU2F1 isoform 6 (UniProt P14859)
inactive: [1] 0.087 | [2] -0.007 | [3] 0.052 | [4] 0.127 | Nexturastat A -0.063 | vemurafenib 0.072 | [5] 0.24 | [6] -0.045 | givinostat 0.112 | barasertib 0.123

POMGNT2 (UniProt Q8NAT1)
inactive: [1] -0.011 | [3] 0.004 | [4] -0.193 | vemurafenib 0.002 | [5] 0.011 | [6] -0.03 | givinostat -0.056 | barasertib 0.047

POLR1D (UniProt P0DPB5)
inactive: [1] -0.006 | [2] 0.083 | [3] 0.035 | [4] -0.113 | Nexturastat A 0.175 | [5] -0.517 | givinostat -0.13 | barasertib 0.314

PNPLA4 (UniProt P41247)
inactive: [1] 0.418 | [2] -0.04 | [3] 0.409 | [4] 0.273 | vemurafenib -0.093 | [5] -0.025 | [6] -0.277 | barasertib 0.042
active: givinostat 1.1

POLR1B isoform 3 (UniProt Q9H9Y6)
inactive: [1] 0.027 | [2] -0.069 | [4] -0.045 | Nexturastat A 0.133 | vemurafenib 0.093 | [6] 0 | givinostat 0.026

PM20D2 (UniProt Q8IYS1)
inactive: [1] 0.069 | [2] 0.007 | givinostat -0.173

PNN (UniProt Q9H307)
inactive: [1] -0.101 | [2] 0.084 | [3] 0.003 | [4] 0.011 | Nexturastat A 0.03 | [5] 0.04 | [6] 0.004 | givinostat 0.121 | barasertib 0.027

PLEKHM2 (UniProt Q8IWE5)
inactive: [1] 0.064 | [2] 0.035 | [3] 0.052 | [4] -0.011 | Nexturastat A -0.028 | vemurafenib 0.075 | [5] 0.124 | [6] 0.038 | givinostat 0.177 | barasertib 0.076

Two consecutive records from above, for reference:
PPIL3 isoform 2 (UniProt Q9H2H8)
inactive: [1] 0.037 | [2] 0 | [3] -0.004 | [4] -0.112 | Nexturastat A 0.307 | vemurafenib 0.106 | [5] 0.036 | givinostat 0.042 | barasertib 0.021

PLP2 (UniProt Q04941)
inactive: [1] -0.083 | [3] -0.072 | [4] -0.103 | Nexturastat A 0.009 | vemurafenib -0.109 | [5] -0.059 | [6] 0.022 | givinostat -0.356 | barasertib 0.325

(further entries)

PNMT (UniProt P11086)
inactive: [1] -0.076 | [3] 0.072 | [5] 0.003 | givinostat -0.035

POLB (UniProt P06746)
inactive: [1] 0.086 | [2] -0.211 | [3] 0.009 | Nexturastat A 0.189 | [5] 0.178 | givinostat -0.026

POM121C (UniProt A8CG34)
inactive: [1] -0.036 | [2] -0.089 | [4] 0.005 | [6] 0.106 | givinostat 0.028 | barasertib 0.152

POLR3K (UniProt Q9Y2Y1)
inactive: [1] -0.028 | [2] 0.098 | [3] 0 | [4] -0.014 | Nexturastat A -0.04 | vemurafenib -0.067 | [5] -0.066 | [6] -0.038 | givinostat -0.013 | barasertib 0.003

POT1 (UniProt Q9NUX5)
inactive: [1] -0.132 | [2] -0.006 | Nexturastat A 0.018 | [6] -0.252 | givinostat -0.389 | barasertib 0.024
